# In PubChem BioAssay (Tox21):
# By UniProt entry, the sequences of proteins in these tests, tags left out. Where a name states a change or a piece, a line headed by the entry shows the natural chain unless it says otherwise.
# UniProt P28223, whole entry, looked up: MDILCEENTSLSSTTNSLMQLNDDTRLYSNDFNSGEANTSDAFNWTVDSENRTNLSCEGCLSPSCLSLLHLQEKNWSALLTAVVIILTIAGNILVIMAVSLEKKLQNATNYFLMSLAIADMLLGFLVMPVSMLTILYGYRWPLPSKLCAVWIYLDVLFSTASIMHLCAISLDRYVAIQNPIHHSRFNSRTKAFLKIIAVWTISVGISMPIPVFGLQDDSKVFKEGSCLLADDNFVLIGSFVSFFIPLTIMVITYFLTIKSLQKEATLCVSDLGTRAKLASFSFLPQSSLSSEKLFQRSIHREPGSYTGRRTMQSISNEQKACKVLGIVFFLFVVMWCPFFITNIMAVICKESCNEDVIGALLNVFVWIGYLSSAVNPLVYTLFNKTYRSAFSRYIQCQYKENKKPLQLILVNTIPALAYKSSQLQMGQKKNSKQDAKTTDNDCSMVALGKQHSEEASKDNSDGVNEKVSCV
# UniProt P14416, whole entry, looked up: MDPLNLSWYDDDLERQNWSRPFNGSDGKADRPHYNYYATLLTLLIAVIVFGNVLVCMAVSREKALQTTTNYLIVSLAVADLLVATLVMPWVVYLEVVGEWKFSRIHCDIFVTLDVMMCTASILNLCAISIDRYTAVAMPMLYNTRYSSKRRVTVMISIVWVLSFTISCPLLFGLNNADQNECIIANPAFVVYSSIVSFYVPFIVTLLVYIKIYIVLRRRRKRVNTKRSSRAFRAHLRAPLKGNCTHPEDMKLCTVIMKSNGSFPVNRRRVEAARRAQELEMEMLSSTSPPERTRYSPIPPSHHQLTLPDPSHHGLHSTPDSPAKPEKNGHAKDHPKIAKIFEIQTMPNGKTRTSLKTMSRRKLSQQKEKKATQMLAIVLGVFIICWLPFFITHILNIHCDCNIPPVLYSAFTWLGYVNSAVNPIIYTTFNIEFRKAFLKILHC
# UniProt P11229: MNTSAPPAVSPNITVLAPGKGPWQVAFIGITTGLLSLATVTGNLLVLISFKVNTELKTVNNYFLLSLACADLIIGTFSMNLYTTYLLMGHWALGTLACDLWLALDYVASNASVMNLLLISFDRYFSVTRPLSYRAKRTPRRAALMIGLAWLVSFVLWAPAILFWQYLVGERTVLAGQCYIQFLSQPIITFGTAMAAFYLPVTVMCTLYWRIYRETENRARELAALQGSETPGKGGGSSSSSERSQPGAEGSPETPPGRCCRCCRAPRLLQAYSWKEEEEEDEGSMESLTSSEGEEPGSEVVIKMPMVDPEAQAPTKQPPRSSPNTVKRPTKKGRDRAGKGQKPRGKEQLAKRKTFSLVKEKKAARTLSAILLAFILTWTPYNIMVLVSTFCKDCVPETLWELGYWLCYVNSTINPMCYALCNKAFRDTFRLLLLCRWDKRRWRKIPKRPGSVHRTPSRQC
# Several values for one entry are separate records, joined by “and”; a condition that tells them apart may be missing. Equal values may be shown once. The shares of active, inactive and inconclusive entries below differ from those in the screen. For some of these results: Potencies of inconclusive entries are doubtful fits and often do not repeat. Activity calls are given as the source filed them. Unless noted, calls come from the whole dose curve.
# How the values were obtained:
# [1] = Nuclear factor erythroid 2-related factor 2/antioxidant responsive element (Nrf2/ARE) small molecule agonists: luciferase reporter gene qHTS assay in human keratinocytes (AID 1919969); conditions: KeratinoSens HaCaT ARE-luciferase, luminescence, 24 h; activity, positive = activation: at 92.4 µM (top of the series); note: nearly all actives have a fitted effect of over 35% in size; note: potency is the fitted concentration of half-maximal effect
# [2] = biological target: 5-hydroxytryptamine receptor 2A (Homo sapiens) (UniProt P28223); test: 5-hydroxytryptamine receptor 2A (HTR2A) small molecule agonists, cell-based qHTS assay (AID 1963587); note: nearly all actives have a fitted effect of over 30% in size; note: potency is the fitted concentration of half-maximal effect
# How it was run: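 HTR2A-CHO cells, plated 18 h at 37 C/5% CO2, dye-loaded 1 h at 37 C; compounds in DMSO added by pin tool (agonist mode). Intracellular calcium flux read as kinetic fluorescence on FDSS over 2 min at 1 s intervals.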
# [3] = cAMP Responsive Elements (CRE) small molecule antagonists, cell-based qHTS assay (AID 1963591; active = well fitted inhibition curve with a large enough effect in the signal ratio in the repeat runs, not every such curve was filed as active; inconclusive = weak or mixed curves, or effect the other way; the % refers to the signal ratio; note: % is set by controls: 0 for no effect and ±100 for the full control effect); conditions: CRE-bla HEK293T, beta-lactamase FRET ratio; activity change, negative = inhibition: at 92.4 µM (top of the series) unless noted
# How it was run: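 Reporter line CRE-bla HEK 293T in dialyzed-FBS DMEM; cells preincubated 18 h, treated 3 h with compound plus NKH477 (0.25 uM final); LiveBLAzer FRET, 2 h RT.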
# [4] = biological target: Beta-2 adrenergic receptor (Homo sapiens) (UniProt P07550); test: Adrenergic beta2 receptor (ADRB2) small molecule agonists, cell-based qHTS assay (AID 1963593); conditions: CHO-ADRB2 cells, cAMP HTRF, 30 min; note: potency is the fitted concentration of half-maximal effect;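 for activation: CHO cells stably overexpressing human ADRB2; % is set by controls: 0 for no effect and ±100 for the full control effect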
# How it was run: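 CHO cells stably over-expressing ADRB2 were plated overnight at 37C, then dosed with compounds plus a stimulation mix containing 100uM IBMX and 25uM Ro-20-1724 for 0.5hr at room temperature. cAMP was measured by HTRF competition, 1hr.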
# [5] = biological target: D(2) dopamine receptor (Homo sapiens) (UniProt P14416); test: Dopamine D2 receptor (DRD2) small molecule antagonists, cell-based qHTS assay (AID 1963595; active = well fitted inhibition curve with a large enough effect in the signal ratio in the repeat runs, with a control signal flat; inconclusive = weak or mixed curves, or effect the other way; the % refers to the signal ratio; note: potency is the fitted concentration of half-maximal effect; for activity change, negative = inhibition: % is set by controls: 0 for no effect and ±100 for the full control effect); conditions: HEK293-DRD2 cAMP HTRF antagonist mode; activity change, negative = inhibition: at 92.4 µM (top of the series) unless noted
# How it was run: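 DRD2-HEK293; 0.1 mM Ro20-1724; cpd 10 min RT; NKH477 200 nM + quinpirole 12 nM, 30 min RT; HTRF cAMP (cAMP-d2/anti-cAMP cryptate), 665/620 nm ratio after 1 h.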
# [6] = biological target: Muscarinic acetylcholine receptor M1 (Homo sapiens) (UniProt P11229); test: Cholinergic receptor muscarinic 1 (CHRM1) small molecule antagonists, cell-based qHTS assay (AID 1963588); note: nearly all actives have a fitted effect of over 40% in size; note: potency is the fitted concentration of half-maximal effect
# How it was run: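 Compounds were tested at 15 concentrations in three independent runs. Dye-loaded CHRM1-CHO cells were exposed 5 min at room temperature before stimulation by acetylcholine added at 50nM. Intracellular calcium was read kinetically on FDSS for 3 min.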
# [7] = biological target: 5-hydroxytryptamine receptor 2A (Homo sapiens) (UniProt P28223); test: 5-hydroxytryptamine receptor 2A (HTR2A) small molecule antagonists, cell-based qHTS assay (AID 1963586); note: potency is the fitted concentration of half-maximal effect; nearly all actives have a fitted effect of over 45% in size
# How it was run: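 CHO cells stably expressing human HTR2A were plated for 18 h at 37 C, then loaded with calcium dye for 1 h. Compounds were preincubated 5 min at room temperature before DOI (4 nM solution) was added. Kinetic fluorescence was read for 3 min.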
# [8] = biological target: Beta-2 adrenergic receptor (Homo sapiens) (UniProt P07550); test: Adrenergic beta2 receptor (ADRB2) small molecule antagonists, cell-based qHTS assay (AID 1963592); conditions: CHO-ADRB2 cells, isoproterenol-stimulated cAMP HTRF ratio, 0.5 h; activity change, negative = inhibition: at 92.4 µM (top of the series) unless noted; note: % is set by controls: 0 for no effect and ±100 for the full control effect; nearly all actives have a fitted effect of over 50% in size
# How it was run: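 Assay format: CHO-ADRB2 cells, 18-20hr seeding at 37C/5% CO2, then compound plus 1nM isoproterenol agonist mix for 0.5hr RT. Homogeneous time-resolved fluorescence cAMP detection after 1hr, expressed as 665/615 nm ratio.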
# [9] = cAMP Responsive Elements (CRE) small molecule agonists, cell-based qHTS assay (AID 1963590); conditions: CRE-bla HEK293T, beta-lactamase FRET ratio, 3 h; activation: at 92.4 µM (top of the series) unless noted; note: % is set by controls: 0 for no effect and ±100 for the full control effect
# How it was run: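 Test agents in DMSO were incubated 3 h at 37 C/5% CO2 with CRE-bla HEK 293T cells seeded 18 h earlier; LiveBLAzer B/G FRET substrate was added and read after 2 h at room temperature.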
# [10] = biological target: Muscarinic acetylcholine receptor M1 (Homo sapiens) (UniProt P11229); test: Cholinergic receptor muscarinic 1 (CHRM1) small molecule agonists, cell-based qHTS assay (AID 1963589); note: potency is the fitted concentration of half-maximal effect; nearly all actives have a fitted effect of over 35% in size
# How it was run: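 Kinetic fluorescence (1 s intervals) of calcium-sensitive dye in human M1 CHO cells after compound addition; cells pre-incubated 18 h at 37 C/5% CO2 and dye-loaded 1 h.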
# [11] = activation: at 92.4 µM (top of the series) unless noted
structure (smiles),measurement,setting,value
CCCCCCCCCCOC(=O)c1ccccc1C(=O)OCCCCCCCC,Potency,[1],"inconclusive: 68.6 µM [activator, partial curve, poor fit]"
same,Potency,[2],"inconclusive: 54.9 µM [activator, single point]"
same,Potency,[3],inactive
same,activation,[4]; [11],inconclusive: -7.36%
same,Potency,[5],inactive
Cc1c(C)n(CCN(C)C)c2ccc(C(=O)OCCN(C)C)cc12,Potency,[1],active: 29.8 µM
same,Potency,[6],"inconclusive: 13 µM [inhibitor, partial curve, poor fit]"
same,"activity change, negative = inhibition",[3],inconclusive: -24.1% [at 42.4 µM]
same,Potency,[4]; [11],inactive
CC(C)(C)c1cccc(O)c1,Potency,[1],active: 61.1 µM
same,Potency,[7],"inconclusive: 0.375 µM [inhibitor, single point]"
same,Potency,[4]; [11],inactive
CC(C)C(=O)OCc1cccc(OC(=O)[C@@H]2N3C(=O)[C@@H](NC(=O)Cc4ccccc4)[C@H]3SC2(C)C)c1,Potency,[1],inactive
same,Potency,[7],"inconclusive: 4.6 µM [inhibitor, single point]"
same,Potency,[4]; [11],"inconclusive: 0.266 µM [inhibitor, partial curve, poor fit]"
Oc1c(Cl)ccc(Cl)c1Cl,Potency,[1],"inconclusive: 27.3 µM [activator, single point]"
same,Potency,[6],inactive
same,Potency,[3],inactive
same,Potency,[8],inactive
same,activation,[4]; [11],inconclusive: 7.69% and inconclusive: -32.2%
O=C1Nc2ccc([N+](=O)[O-])cc2C1=O,Potency,[1],inconclusive: 68.5 µM [activator]
same,Potency,[2],inactive
same,Potency,[3],inactive
same,"activity change, negative = inhibition",[8],inconclusive: 4.84%
same,Potency,[4]; [11],"inconclusive: 2.16 µM [activator, full curve, poor fit]"
same,Potency,[5],"inconclusive: 54.4 µM [cytotoxic, partial curve, poor fit]"
C#CCN[C@@H]1CCc2ccccc21,Potency,[1],inactive
same,Potency,[7],"inconclusive: 20.5 µM [inhibitor, single point]"
same,Potency,[4]; [11],active: 29.8 µM
CCCCNc1ccc(C(=O)OCCN(CC)CC)cc1,Potency,[1],inactive
same,Potency,[6],active: 3.26 µM
C=CC(C)(CCC=C(C)C)OC(=O)CC(C)C (stereo not given),Potency,[1],"inconclusive: 15.4 µM [activator, partial curve, poor fit]"
same,Potency,[2],inactive
same,"activity change, negative = inhibition",[8],inconclusive: -12%
same,activation,[4]; [11],inconclusive: 0.523%
Nc1ccc(S(=O)(=O)Nc2ccccn2)cc1,Potency,[1],inactive
same,Potency,[7],"inconclusive: 0.0016 µM [inhibitor, single point]"
same,Potency,[4]; [11],inactive
OCCN1CCNCC1,Potency,[1],"inconclusive: 60.5 µM [activator, partial curve]"
same,Potency,[7],"inconclusive: 4.17 µM [inhibitor, single point]"
same,Potency,[4]; [11],inactive
same,"activity change, negative = inhibition",[5],inconclusive: -10.2%
CCCCCCn1c(=O)c2c(ncn2C)n(C)c1=O,Potency,[1],inactive
same,Potency,[6],inactive
same,Potency,[9],inactive
same,activation,[4]; [11],inconclusive: 6.23% [at 42.5 µM]
CC(C)(C)c1cc(C(C)(C)C)c(O)c(C(C)(C)C)c1,Potency,[1],"inconclusive: 21.7 µM [activator, partial curve, poor fit]"
same,Potency,[2],"inconclusive: 13.8 µM [activator, full curve, poor fit]"
same,Potency,[10],"inconclusive: 61.6 µM [rising, partial curve, poor fit]"
same,activation,[4]; [11],inconclusive: 46.6%
same,activation,[4]; at 92.4 µM (top of the series),inactive: -35.5%
CCC(=O)CC(C)CC (stereo not given),"activity, positive = activation",[1],inactive: -3.45% [at 0.349 µM]
same,activation,[2],inactive: 6.03% [at 0.292 µM]
same,"activity change, negative = inhibition",[3],inactive: 1.08% [at 0.349 µM]
same,Potency,[4]; [11],"inconclusive: 0.0133 µM [inhibitor, full curve, poor fit]"

# Some of the entries so far, with tabs.
structure (smiles)	measurement	setting	value
C=CC(C)(CCC=C(C)C)OC(=O)CC(C)C (stereo not given)	Potency	[1]	inconclusive: 15.4 µM [activator, partial curve, poor fit]
same	Potency	[2]	inactive
same	activity change, negative = inhibition	[8]	inconclusive: -12%
